Data published in patent US9926581B2, “Fagopyritol synthase genes and uses thereof” (Cornell Research Foundation, Inc., priority 2002, dated 2018).

Legend:
soybean explants [1] = experiment: Soybean explant feeding 3 days with 50 mM cyclitol in 1% sucrose, slow drying time course, soluble carbohydrates in axis, cotyledon, seed coat and leaf
soybean explants [2] = experiment: Soybean explant feeding with 50 mM free cyclitols for one week, soluble carbohydrates in mature seeds; format: in vivo, Glycine max (L.) Merrill cv. Chippewa 64
immature soybean embryos = experiment: Embryo feeding experiments: cyclitols fed to immature soybean embryos, precocious maturation by slow drying, soluble carbohydrates in axis and cotyledons; format: in vivo, Glycine max (L.) Merrill
[3] = 3 days transport of sucrose (1%) and D-pinitol (50 mM), after 14 days slow drying, Rep 1
[4] = 3 days transport of sucrose (1%) and D-pinitol (50 mM), after 14 days slow drying, Rep 2
[5] = 3 days transport of sucrose (1%) and D-pinitol (50 mM), before slow drying, Rep 1
[6] = 3 days transport of sucrose (1%) and D-pinitol (50 mM), before slow drying, Rep 2
[7] = 3 days transport of sucrose (1%) and myo-inositol (50 mM), after 2 days slow drying, Rep 1
[8] = 3 days transport of sucrose (1%) and myo-inositol (50 mM), after 2 days slow drying, Rep 2
[9] = 3 days transport of sucrose (1%) and myo-inositol (50 mM), after 4 days slow drying, Rep 1
[10] = 3 days transport of sucrose (1%) and myo-inositol (50 mM), after 4 days slow drying, Rep 2
[11] = 3 days transport of sucrose (1%) and myo-inositol (50 mM), after 14 days slow drying, Rep 1
[12] = 3 days transport of sucrose (1%) and myo-inositol (50 mM), after 14 days slow drying, Rep 2
[13] = 3 days transport of sucrose (1%) and myo-inositol (50 mM), before slow drying, Rep 1
[14] = 3 days transport of sucrose (1%) and myo-inositol (50 mM), before slow drying, Rep 2
[15] = 3 days transport of sucrose (1%) without cyclitols, after 2 days slow drying, Rep 1
[16] = 3 days transport of sucrose (1%) without cyclitols, after 2 days slow drying, Rep 2
[17] = 3 days transport of sucrose (1%) without cyclitols, after 4 days slow drying, Rep 1
[18] = 3 days transport of sucrose (1%) without cyclitols, after 4 days slow drying, Rep 2
[19] = 3 days transport of sucrose (1%) without cyclitols, after 14 days slow drying, Rep 1
[20] = 3 days transport of sucrose (1%) without cyclitols, after 14 days slow drying, Rep 2
[21] = 3 days transport of sucrose (1%) without cyclitols, before slow drying, Rep 1
[22] = 3 days transport of sucrose (1%) without cyclitols, before slow drying, Rep 2

`OC[C@H]1O[C@H](OC2[C@@H](O)[C@H](O)C(O)[C@H](O)[C@@H]2O)[C@H](O)[C@@H](O)[C@H]1O` (stereo partly drawn) [Galactinol, galactinol, reference compound] was tested, and the “Accumulation of soluble carbohydrates in soybean cotyledon” value (soybean explants [1]; [3]) was 11.23 μg/cotyledon, the “Accumulation of soluble carbohydrates in soybean seed coat” value (soybean explants [1]; [3]) was 0 μg/seed coat and the “Accumulation of soluble carbohydrates in soybean axis” value (“Accumulation … in soybean axis” for short) (soybean explants [1]; [4]) was 4.18 μg/axis. For the same compound, the “Accumulation of soluble carbohydrates in soybean cotyledon” value (soybean explants [1]; [4]) was 10.39 μg/cotyledon, the “Accumulation of soluble carbohydrates in soybean seed coat” value (soybean explants [1]; [4]) was 2.77 μg/seed coat and the “Accumulation … in soybean axis” value (soybean explants [1]; [5]) was 2.27 μg/axis. The “Accumulation of soluble carbohydrates in soybean cotyledon” value (soybean explants [1]; [5]) was 0 μg/cotyledon, the “Accumulation … in soybean axis” value (soybean explants [1]; [6]) was 2.97 μg/axis and the “Accumulation of soluble carbohydrates in soybean cotyledon” value (soybean explants [1]; [6]) was 0 μg/cotyledon. The “Accumulation … in soybean axis” value (soybean explants [1]; [7]) was 12.80 μg/axis, the “Accumulation of soluble carbohydrates in soybean cotyledons” value (“Accumulation … in soybean cotyledons” for short) (soybean explants [1]; [7]) was 85.06 μg/cotyledon and the “Accumulation of soluble carbohydrates in soybean seed coats” value (shortened to “Accumulation … in soybean seed coats”) (soybean explants [1]; [7]) was 0 μg/seed coat. For the same compound, the “Accumulation … in soybean axis” value (soybean explants [1]; [8]) was 10.83 μg/axis, the “Accumulation … in soybean cotyledons” value (soybean explants [1]; [8]) was 104.07 μg/cotyledon and the “Accumulation … in soybean seed coats” value (soybean explants [1]; [8]) was 0 μg/seed coat. The “Accumulation … in soybean axis” value (soybean explants [1]; [9]) was 7.31 μg/axis, the “Accumulation … in soybean cotyledons” value (soybean explants [1]; [9]) was 57.03 μg/cotyledon and the “Accumulation … in soybean axis” value (soybean explants [1]; [10]) was 4.07 μg/axis. The “Accumulation … in soybean cotyledons” value (soybean explants [1]; [10]) was 25.34 μg/cotyledon, the “Accumulation … in soybean seed coats” value (soybean explants [1]; [10]) was 0 μg/seed coat and the “Accumulation … in soybean axis” value (soybean explants [1]; [11]) was 6.76 μg/axis. The “Accumulation … in soybean cotyledons” value (soybean explants [1]; [11]) was 14.65 μg/cotyledon, the “Accumulation … in soybean seed coats” value (soybean explants [1]; [11]) was 2.61 μg/seed coat and the “Accumulation … in soybean axis” value (soybean explants [1]; [12]) was 4.14 μg/axis. The “Accumulation … in soybean cotyledons” value (soybean explants [1]; [12]) was 14.10 μg/cotyledon, the “Accumulation … in soybean seed coats” value (soybean explants [1]; [12]) was 2.91 μg/seed coat and the “Accumulation … in soybean axis” value (soybean explants [1]; [13]) was 3.01 μg/axis. The “Accumulation … in soybean cotyledons” value (soybean explants [1]; [13]) was 0 μg/cotyledon, the “Accumulation … in soybean axis” value (soybean explants [1]; [14]) was 3.59 μg/axis and the “Accumulation … in soybean cotyledons” value (soybean explants [1]; [14]) was 0 μg/cotyledon. The “Accumulation … in soybean axis” value (soybean explants [1]; [15]) was 11.09 μg/axis, the “Accumulation of soluble carbohydrates in soybean cotyledon” value (soybean explants [1]; [15]) was 83.71 μg/cotyledon and the “Accumulation … in soybean seed coats” value (soybean explants [1]; [15]) was 0 μg/seed coat. For the same compound, the “Accumulation … in soybean axis” value (soybean explants [1]; [16]) was 13.41 μg/axis, the “Accumulation of soluble carbohydrates in soybean cotyledon” value (soybean explants [1]; [16]) was 166.27 μg/cotyledon and the “Accumulation … in soybean seed coats” value (soybean explants [1]; [16]) was 0 μg/seed coat. For the same compound, the “Accumulation … in soybean axis” value (soybean explants [1]; [17]) was 5.60 μg/axis, the “Accumulation of soluble carbohydrates in soybean cotyledon” value (soybean explants [1]; [17]) was 52.22 μg/cotyledon and the “Accumulation … in soybean seed coats” value (soybean explants [1]; [17]) was 1.50 μg/seed coat. The “Accumulation … in soybean axis” value (soybean explants [1]; [18]) was 4.29 μg/axis, the “Accumulation of soluble carbohydrates in soybean cotyledon” value (soybean explants [1]; [18]) was 25.06 μg/cotyledon and the “Accumulation … in soybean seed coats” value (soybean explants [1]; [18]) was 0 μg/seed coat. The “Accumulation … in soybean axis” value (soybean explants [1]; [19]) was 4.38 μg/axis, the “Accumulation of soluble carbohydrates in soybean cotyledon” value (soybean explants [1]; [19]) was 28.60 μg/cotyledon and the “Accumulation … in soybean seed coats” value (soybean explants [1]; [19]) was 0 μg/seed coat. For the same compound, the “Accumulation … in soybean axis” value (soybean explants [1]; [20]) was 4.27 μg/axis, the “Accumulation of soluble carbohydrates in soybean cotyledon” value (soybean explants [1]; [20]) was 26.57 μg/cotyledon and the “Accumulation … in soybean seed coats” value (soybean explants [1]; [20]) was 1.66 μg/seed coat. The “Accumulation … in soybean axis” value (soybean explants [1]; [21]) was 1.20 μg/axis, the “Accumulation of soluble carbohydrates in soybean cotyledon” value (soybean explants [1]; [21]) was 1.88 μg/cotyledon and the “Accumulation … in soybean axis” value (soybean explants [1]; [22]) was 5.49 μg/axis. The “Accumulation of soluble carbohydrates in soybean cotyledon” value (soybean explants [1]; [22]) was 2.16 μg/cotyledon, the “change in concentration after feeding 50 mM myo-inositol to explants” value (soybean explants [2]; axis and cotyledon tissue of mature seeds) was 50% and the “increase after feeding 50 mM D-chiro-inositol to explants” value (soybean explants [2]; cotyledon tissues) was “remained unchanged”. The “increase in concentration after feeding D-chiro-inositol” value (immature soybean embryos; axis and cotyledons, concentration series, 14 days precocious maturation) was “did not increase”, the “change in accumulation after feeding 25 to 50 mM myo-inositol” value (immature soybean embryos; cotyledons) was “doubled” and the “decrease in concentration after feeding D-pinitol and D-chiro-inositol compared to D-pinitol alone” value (immature soybean embryos; cotyledons, 14 days) was 50%.
